According to article doi:10.1101/2025.08.29.668156:
Where two headings read alike, the source gives them in different places. Results are given in words; binding and its absence hold for the method and conditions named. In cells and extracts the contact can be indirect. Here binding means that the protein was enriched with, or labelled near, the bait; the list need not be complete. For some of these results: Sequences can lack the tags named with a protein.

Sequences of proteins named here, by UniProt entry; tags and fusion partners are left off.
UniProt P02545: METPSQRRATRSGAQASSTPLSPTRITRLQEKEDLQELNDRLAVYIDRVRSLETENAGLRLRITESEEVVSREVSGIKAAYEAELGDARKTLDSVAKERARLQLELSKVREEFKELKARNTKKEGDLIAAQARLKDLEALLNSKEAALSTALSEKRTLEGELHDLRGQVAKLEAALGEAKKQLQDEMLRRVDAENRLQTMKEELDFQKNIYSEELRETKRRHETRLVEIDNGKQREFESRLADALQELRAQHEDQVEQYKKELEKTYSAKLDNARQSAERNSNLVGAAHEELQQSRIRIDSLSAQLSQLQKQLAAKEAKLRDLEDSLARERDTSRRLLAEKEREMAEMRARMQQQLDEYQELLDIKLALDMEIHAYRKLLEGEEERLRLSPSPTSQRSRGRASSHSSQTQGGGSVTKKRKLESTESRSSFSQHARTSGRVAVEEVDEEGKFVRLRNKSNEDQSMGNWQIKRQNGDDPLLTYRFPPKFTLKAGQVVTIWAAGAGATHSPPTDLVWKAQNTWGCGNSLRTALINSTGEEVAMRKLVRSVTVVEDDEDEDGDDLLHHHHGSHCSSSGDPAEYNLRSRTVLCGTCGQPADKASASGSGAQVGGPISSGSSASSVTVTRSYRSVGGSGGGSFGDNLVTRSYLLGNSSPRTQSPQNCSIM
UniProt P20339: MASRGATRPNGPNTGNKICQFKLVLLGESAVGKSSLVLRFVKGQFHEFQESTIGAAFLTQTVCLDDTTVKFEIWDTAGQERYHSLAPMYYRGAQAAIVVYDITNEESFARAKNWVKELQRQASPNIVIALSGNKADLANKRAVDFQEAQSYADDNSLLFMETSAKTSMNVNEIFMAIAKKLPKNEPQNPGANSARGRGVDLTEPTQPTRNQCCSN
UniProt Q96FL9: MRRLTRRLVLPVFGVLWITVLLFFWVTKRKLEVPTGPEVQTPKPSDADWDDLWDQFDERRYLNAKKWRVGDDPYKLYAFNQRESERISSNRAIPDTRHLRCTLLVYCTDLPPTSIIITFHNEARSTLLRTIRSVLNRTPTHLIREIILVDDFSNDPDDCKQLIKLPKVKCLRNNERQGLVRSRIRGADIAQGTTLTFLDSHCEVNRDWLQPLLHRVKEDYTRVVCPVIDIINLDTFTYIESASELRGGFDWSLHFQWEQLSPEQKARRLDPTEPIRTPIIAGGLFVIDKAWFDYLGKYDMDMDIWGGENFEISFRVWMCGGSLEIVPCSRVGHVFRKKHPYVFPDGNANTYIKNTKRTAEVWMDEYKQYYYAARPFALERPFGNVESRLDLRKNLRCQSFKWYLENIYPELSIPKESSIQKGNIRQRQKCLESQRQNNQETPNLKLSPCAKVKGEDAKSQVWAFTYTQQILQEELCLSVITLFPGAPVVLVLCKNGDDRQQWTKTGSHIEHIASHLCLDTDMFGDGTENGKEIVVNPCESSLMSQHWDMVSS
UniProt Q96SK2: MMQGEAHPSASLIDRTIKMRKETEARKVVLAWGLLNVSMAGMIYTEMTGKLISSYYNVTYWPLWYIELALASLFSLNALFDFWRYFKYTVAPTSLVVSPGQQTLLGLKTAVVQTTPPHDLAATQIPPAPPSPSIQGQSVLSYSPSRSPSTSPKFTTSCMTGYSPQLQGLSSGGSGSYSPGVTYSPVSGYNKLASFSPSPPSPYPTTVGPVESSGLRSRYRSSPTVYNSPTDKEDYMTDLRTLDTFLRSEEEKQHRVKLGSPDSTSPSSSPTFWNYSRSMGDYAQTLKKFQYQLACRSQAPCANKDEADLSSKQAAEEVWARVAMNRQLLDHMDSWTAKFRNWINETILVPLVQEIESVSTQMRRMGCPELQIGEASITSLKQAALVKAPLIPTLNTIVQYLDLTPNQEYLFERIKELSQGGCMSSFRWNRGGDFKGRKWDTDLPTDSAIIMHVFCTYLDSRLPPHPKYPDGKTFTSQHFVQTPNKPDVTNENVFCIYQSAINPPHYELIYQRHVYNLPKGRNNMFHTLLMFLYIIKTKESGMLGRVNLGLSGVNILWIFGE
UniProt Q10471: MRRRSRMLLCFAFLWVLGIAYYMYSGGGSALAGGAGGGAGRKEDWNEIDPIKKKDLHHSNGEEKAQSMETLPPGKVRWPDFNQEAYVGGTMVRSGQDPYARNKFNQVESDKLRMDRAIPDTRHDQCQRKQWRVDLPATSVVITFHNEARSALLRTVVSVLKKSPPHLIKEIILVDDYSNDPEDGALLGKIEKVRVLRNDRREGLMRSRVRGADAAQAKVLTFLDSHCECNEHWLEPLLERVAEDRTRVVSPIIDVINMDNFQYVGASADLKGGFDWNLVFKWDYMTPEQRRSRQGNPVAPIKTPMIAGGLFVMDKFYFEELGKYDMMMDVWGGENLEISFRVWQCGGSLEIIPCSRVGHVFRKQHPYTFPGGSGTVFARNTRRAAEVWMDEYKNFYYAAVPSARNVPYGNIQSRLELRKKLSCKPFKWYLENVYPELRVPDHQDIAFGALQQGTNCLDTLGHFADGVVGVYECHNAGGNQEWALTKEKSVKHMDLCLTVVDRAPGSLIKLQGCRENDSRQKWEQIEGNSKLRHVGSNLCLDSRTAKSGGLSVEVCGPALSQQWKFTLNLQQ
UniProt Q9BWN1: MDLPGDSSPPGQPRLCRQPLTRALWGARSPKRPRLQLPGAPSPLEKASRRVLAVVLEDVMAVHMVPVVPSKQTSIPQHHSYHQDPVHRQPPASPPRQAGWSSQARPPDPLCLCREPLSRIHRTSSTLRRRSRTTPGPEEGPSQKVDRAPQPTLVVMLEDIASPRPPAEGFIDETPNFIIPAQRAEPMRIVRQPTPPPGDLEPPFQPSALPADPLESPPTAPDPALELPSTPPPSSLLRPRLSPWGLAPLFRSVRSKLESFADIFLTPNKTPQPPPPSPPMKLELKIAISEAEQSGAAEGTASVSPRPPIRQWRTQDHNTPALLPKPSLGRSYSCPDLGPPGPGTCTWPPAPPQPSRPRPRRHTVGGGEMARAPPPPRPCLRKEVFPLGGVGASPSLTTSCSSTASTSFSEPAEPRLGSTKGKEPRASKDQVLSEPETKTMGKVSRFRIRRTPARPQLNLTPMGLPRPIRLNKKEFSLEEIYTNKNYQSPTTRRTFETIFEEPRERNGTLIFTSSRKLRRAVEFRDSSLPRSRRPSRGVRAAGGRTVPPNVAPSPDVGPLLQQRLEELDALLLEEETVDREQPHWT
UniProt O94901: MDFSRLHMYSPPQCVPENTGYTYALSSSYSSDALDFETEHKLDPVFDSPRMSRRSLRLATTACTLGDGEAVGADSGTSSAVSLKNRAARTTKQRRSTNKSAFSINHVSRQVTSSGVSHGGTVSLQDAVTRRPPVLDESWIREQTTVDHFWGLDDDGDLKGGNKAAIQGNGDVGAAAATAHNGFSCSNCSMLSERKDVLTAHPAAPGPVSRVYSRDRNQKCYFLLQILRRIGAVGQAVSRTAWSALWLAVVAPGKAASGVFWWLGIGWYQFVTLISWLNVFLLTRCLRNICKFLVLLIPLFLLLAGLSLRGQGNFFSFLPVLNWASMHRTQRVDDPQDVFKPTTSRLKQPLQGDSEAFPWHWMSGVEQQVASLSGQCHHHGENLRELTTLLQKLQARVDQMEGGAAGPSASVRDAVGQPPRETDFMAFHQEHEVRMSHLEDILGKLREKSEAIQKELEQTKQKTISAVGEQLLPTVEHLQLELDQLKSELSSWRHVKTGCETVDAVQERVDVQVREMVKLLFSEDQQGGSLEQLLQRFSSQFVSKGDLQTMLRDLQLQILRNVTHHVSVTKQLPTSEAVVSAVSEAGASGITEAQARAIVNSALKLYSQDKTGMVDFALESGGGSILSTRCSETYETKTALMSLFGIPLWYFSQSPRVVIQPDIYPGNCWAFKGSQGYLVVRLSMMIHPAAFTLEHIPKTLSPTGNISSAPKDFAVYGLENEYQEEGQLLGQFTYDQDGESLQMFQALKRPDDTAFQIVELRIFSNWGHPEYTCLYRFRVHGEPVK
UniProt P33908: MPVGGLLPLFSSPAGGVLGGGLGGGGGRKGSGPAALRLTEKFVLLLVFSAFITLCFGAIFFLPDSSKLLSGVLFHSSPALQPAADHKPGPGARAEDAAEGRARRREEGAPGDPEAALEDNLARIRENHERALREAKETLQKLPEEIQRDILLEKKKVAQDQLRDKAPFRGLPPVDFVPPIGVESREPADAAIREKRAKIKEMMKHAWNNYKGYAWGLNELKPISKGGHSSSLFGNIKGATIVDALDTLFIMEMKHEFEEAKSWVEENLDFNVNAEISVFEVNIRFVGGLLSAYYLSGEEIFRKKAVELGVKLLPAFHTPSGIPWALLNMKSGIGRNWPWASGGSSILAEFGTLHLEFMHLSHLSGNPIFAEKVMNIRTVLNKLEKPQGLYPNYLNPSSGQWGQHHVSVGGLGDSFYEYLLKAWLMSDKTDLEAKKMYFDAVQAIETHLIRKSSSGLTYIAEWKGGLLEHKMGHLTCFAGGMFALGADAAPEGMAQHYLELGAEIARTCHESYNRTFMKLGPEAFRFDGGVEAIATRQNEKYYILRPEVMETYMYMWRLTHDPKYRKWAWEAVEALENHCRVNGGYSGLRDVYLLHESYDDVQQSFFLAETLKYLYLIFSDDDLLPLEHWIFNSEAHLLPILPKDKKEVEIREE

How the values were obtained:
Assay in all cases: proximity labelling
[1] = biological target: T1, ST6GALNAC1 fused to ultraID (UniProt Q9NSC7)
T1 sequence: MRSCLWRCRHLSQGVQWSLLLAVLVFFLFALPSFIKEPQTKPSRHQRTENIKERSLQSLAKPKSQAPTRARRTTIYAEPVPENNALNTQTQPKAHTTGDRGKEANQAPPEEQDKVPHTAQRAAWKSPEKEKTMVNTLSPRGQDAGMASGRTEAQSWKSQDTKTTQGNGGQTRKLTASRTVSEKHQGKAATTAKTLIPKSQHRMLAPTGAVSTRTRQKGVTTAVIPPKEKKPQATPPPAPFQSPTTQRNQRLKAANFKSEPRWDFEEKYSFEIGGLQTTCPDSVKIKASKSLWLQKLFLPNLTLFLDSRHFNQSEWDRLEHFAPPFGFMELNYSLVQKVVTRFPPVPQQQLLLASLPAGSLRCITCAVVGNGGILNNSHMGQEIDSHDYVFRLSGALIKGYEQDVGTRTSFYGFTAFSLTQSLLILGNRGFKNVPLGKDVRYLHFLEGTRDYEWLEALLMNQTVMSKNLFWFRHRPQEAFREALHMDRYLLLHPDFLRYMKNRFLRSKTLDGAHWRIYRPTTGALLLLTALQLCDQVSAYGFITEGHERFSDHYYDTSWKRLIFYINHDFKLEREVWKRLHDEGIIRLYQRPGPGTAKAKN

[2] = biological target: LMNA N-terminally fused to BioID2 (UniProt P02545)
[3] = biological target: LMNA N-terminally fused to AirID (UniProt P02545)
[4] = biological target: LMNA N-terminally fused to BirA* (UniProt P02545)
[5] = biological target: LMNA N-terminally fused to lbmicroID2 (UniProt P02545)
[6] = biological target: LMNA N-terminally fused to BASU (UniProt P02545)
[7] = biological target: LMNA N-terminally fused to TurboID (UniProt P02545)
[8] = biological target: LMNA N-terminally fused to microID2 (UniProt P02545)
[9] = biological target: LMNA N-terminally fused to microID (UniProt P02545)
[10] = biological target: LMNA N-terminally fused to miniTurbo (UniProt P02545)
[11] = biological target: LMNA N-terminally fused to ultraID (UniProt P02545)
miniTurbo-RAB5A [12] = biological target: miniTurbo-RAB5A (UniProt P20339)
miniTurbo-RAB5A [13] = biological target: miniTurbo-RAB5A (UniProt P20339); remark: listed apart in the source
ultraID-RAB5A = ultraID-RAB5A (UniProt P20339)

Measured: binding

GALNT14 (from UniProt Q96FL9 1-552)
binds: [1]

TMEM209 (from UniProt Q96SK2 1-561)
binds: [2] | [3] | [4] | [5] | [6] | [7] | [8] | [9] | [10] | [11]

GALNT2 (from UniProt Q10471 1-571)
binds: [1]

PRR14 (from UniProt Q9BWN1 1-585)
binds: [2] | [3] | [4] | [5] | [6] | [7] | [8] | [9] | [10] | [11]

DNAJA1 (from UniProt P31689 1-397)
binds: miniTurbo-RAB5A [12]

SUN1 (from UniProt O94901 1-785)
binds: [2] | [3] | [4] | [5] | [6] | [7] | [8] | [9] | [10] | [11]

VRK2A (from UniProt Q86Y07-1 1-508)
binds: [2] | [3] | [4] | [5] | [6] | [7] | [8] | [9] | [10] | [11]

MAN1A1 (from UniProt P33908 1-653)
binds: [1]

B1: VPS8 (protein, UniProt Q8N3P4 1-1428)
chain: MENEPDHENVEQSLCAKTSEEELNKSFNLEASLSKFSYIDMDKELEFKNDLIDDKEFDIPQVDTPPTLESILNETDDEDESFILEDPTLLNIDTIDSHSYDTSSVASSDSGDRTNLKRKKKLPDSFSLHGSVMRHSLLKGISAQIVSAADKVDAGLPTAIAVSSLIAVGTSHGLALIFGKDQNQALRLCLGSTSVGGQYGAISALSINNDCSRLLCGFAKGQITMWDLASGKLLRSITDAHPPGTAILHIKFTDDPTLAICNDSGGSVFELTFKRVMGVRTCESRCLFSGSKGEVCCIEPLHSKPELKDHPITQFSLLAMASLTKILVIGLKPSLKVWMTFPYGRMDPSSVPLLAWHFVAVQNYVNPMLAFCRGDVVHFLLVKRDESGAIHVTKQKHLHLYYDLINFTWINSRTVVLLDSVEKLHVIDRQTQEELETVEISEVQLVYNSSHFKSLATGGNVSQALALVGEKACYQSISSYGGQIFYLGTKSVYVMMLRSWRERVDHLLKQDCLTEALALAWSFHEGKAKAVVGLSGDASKRKAIVADRMVEILFHYADRALKKCPDQGKIQVMEQHFQDMVPVIVDYCLLLQRKDLLFSQMYDKLSENSVAKGVFLECLEPYILSDKLVGITPQVMKDLIVHFQDKKLMENVEALIVHMDITSLDIQQVVLMCWENRLYDAMIYVYNRGMNEFISPMEKLFRVIAPPLNAGKTLTDEQVVMGNKLLVYISCCLAGRAYPLGDIPEDLVPLVKNQVFEFLIRLHSAEASPEEEIYPYIRTLLHFDTREFLNVLALTFEDFKNDKQAVEYQQRIVDILLKVMVENSDFTPSQVGCLFTFLARQLAKPDNTLFVNRTLFDQVLEFLCSPDDDSRHSERQQVLLELLQAGGIVQFEESRLIRMAEKAEFYQICEFMYEREHQYDKIIDCYLRDPLREEEVFNYIHNILSIPGHSAEEKQSVWQKAMDHIEELVSLKPCKAAELVATHFSGHIETVIKKLQNQVLLFKFLRSLLDPREGIHVNQELLQISPCITEQFIELLCQFNPTQVIETLQVLECYRLEETIQITQKYQLHEVTAYLLEKKGDIHGAFLIMLERLQSKLQEVTHQGENTKEDPSLKDVEDTMVETIALCQRNSHNLNQQQREALWFPLLEAMMAPQKLSSSAIPHLHSEALKSLTMQVLNSMAAFIALPSILQRILQDPVYGKGKLGEIQGLILGMLDTFNYEQTLLETTTSLLNQDLHWSLCNLRASVTRGLNPKQDYCSICLQQYKRRQEMADEIIVFSCGHLYHSFCLQNKECTVEFEGQTRWTCYKCSSSNKVGKLSENSSEIKKGRITPSQVKMSPSYHQSKGDPTAKKGTSEPVLDPQQIQAFDQLCRLYRGSSRLALLTELSQNRSSESYRPFSGSQSAPAFNSIFQNENFQLQLIPPPVTED
binds: miniTurbo-RAB5A [13] | ultraID-RAB5A

B2: APPL1 (protein, UniProt Q9UKG1 1-709)
chain: MPGIDKLPIEETLEDSPQTRSLLGVFEEDATAISNYMNQLYQAMHRIYDAQNELSAATHLTSKLLKEYEKQRFPLGGDDEVMSSTLQQFSKVIDELSSCHAVLSTQLADAMMFPITQFKERDLKEILTLKEVFQIASNDHDAAINRYSRLSKKRENDKVKYEVTEDVYTSRKKQHQTMMHYFCALNTLQYKKKIALLEPLLGYMQAQISFFKMGSENLNEQLEEFLANIGTSVQNVRREMDSDIETMQQTIEDLEVASDPLYVPDPDPTKFPVNRNLTRKAGYLNARNKTGLVSSTWDRQFYFTQGGNLMSQARGDVAGGLAMDIDNCSVMAVDCEDRRYCFQITSFDGKKSSILQAESKKDHEEWICTINNISKQIYLSENPEETAARVNQSALEAVTPSPSFQQRHESLRPAAGQSRPPTARTSSSGSLGSESTNLAALSLDSLVAPDTPIQFDIISPVCEDQPGQAKAFGQGGRRTNPFGESGGSTKSETEDSILHQLFIVRFLGSMEVKSDDHPDVVYETMRQILAARAIHNIFRMTESHLLVTCDCLKLIDPQTQVTRLTFPLPCVVLYATHQENKRLFGFVLRTSSGRSESNLSSVCYIFESNNEGEKICDSVGLAKQIALHAELDRRASEKQKEIERVKEKQQKELNKQKQIEKDLEEQSRLIAASSRPNQASSEGQFVVLSSSQSEESDLGEGGKKRESEA
binds: miniTurbo-RAB5A [13] | ultraID-RAB5A

B3: RAB13 (protein, UniProt P51153 1-203)
chain: MAKAYDHLFKLLLIGDSGVGKTCLIIRFAEDNFNNTYISTIGIDFKIRTVDIEGKKIKLQVWDTAGQERFKTITTAYYRGAMGIILVYDITDEKSFENIQNWMKSIKENASAGVERLLLGNKCDMEAKRKVQKEQADKLAREHGIRFFETSAKSSMNVDEAFSSLARDILLKSGGRRSGNGNKPPSTDLKTCDKKNTNKCSLG
binds: miniTurbo-RAB5A [13] | ultraID-RAB5A

B4: YWHAQ (protein, UniProt P27348 1-245)
chain: MEKTELIQKAKLAEQAERYDDMATCMKAVTEQGAELSNEERNLLSVAYKNVVGGRRSAWRVISSIEQKTDTSDKKLQLIKDYREKVESELRSICTTVLELLDKYLIANATNPESKVFYLKMKGDYFRYLAEVACGDDRKQTIDNSQGAYQEAFDISKKEMQPTHPIRLGLALNFSVFYYEILNNPELACTLAKTAFDEAIAELDTLNEDSYKDSTLIMQLLRDNLTLWTSDSAGEECDAAEGAEN
binds: miniTurbo-RAB5A [13] | ultraID-RAB5A
